Test results published in US20030208060A1.

Columns and labels:
[1] = molecular target: T1, MBP200 (membrane binding protein of ~200 kDa; human monocyte-macrophage apoB48 receptor, apoB48R) (human) (UniProt Q0VD83); assay: ligand blot
T1 sequence: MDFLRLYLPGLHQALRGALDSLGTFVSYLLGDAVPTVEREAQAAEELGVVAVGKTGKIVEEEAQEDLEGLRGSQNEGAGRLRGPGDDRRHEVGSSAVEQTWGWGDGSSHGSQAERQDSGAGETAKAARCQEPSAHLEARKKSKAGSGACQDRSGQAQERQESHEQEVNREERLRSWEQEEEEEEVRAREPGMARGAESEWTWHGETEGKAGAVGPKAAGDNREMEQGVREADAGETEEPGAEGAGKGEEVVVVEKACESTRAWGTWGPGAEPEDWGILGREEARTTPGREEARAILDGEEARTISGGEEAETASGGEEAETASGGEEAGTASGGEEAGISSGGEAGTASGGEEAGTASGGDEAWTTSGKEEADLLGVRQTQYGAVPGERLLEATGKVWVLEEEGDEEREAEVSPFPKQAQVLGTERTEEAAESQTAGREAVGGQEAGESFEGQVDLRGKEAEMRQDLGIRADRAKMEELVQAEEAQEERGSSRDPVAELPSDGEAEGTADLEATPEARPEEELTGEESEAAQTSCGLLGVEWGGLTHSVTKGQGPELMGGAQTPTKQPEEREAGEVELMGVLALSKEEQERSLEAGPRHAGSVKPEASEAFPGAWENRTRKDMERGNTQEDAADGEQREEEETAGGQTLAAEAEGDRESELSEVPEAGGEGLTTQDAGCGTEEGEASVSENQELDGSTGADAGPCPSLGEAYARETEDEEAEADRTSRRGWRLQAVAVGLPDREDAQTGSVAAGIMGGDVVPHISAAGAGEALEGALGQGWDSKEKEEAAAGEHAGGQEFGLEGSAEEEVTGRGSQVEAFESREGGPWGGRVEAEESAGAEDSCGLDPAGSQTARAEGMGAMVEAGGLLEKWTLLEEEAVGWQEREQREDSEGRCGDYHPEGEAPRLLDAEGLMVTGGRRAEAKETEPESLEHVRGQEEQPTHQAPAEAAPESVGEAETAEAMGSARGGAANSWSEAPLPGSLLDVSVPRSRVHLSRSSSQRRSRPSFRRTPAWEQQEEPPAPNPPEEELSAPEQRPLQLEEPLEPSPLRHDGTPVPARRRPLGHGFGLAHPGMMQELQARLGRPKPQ

[2] = molecular target: T2, apoB48R expressed in transfected CHO-K1 cells (human) (UniProt Q0VD83); assay: ligand blot of R-transfected CHO cells
T2 sequence: T1 sequence

[3] = molecular target: T2, apoB48R expressed in transfected CHO-K1 cells (human); assay: ligand blot of detergent extracts of transfected CHO-K1, anti-apoB detection

Substance	binding [1]	binding [2]	binding [3]
hypertriglyceridemic very low density lipoprotein Sf100-400 (HTG-VLDL) (human)	binds		
trypsinized VLDL Sf100-400, devoid of apoE (tryp-VLDL) (human)	binds	binds	binds

Results are given in words; binding and its absence hold for the method and conditions named. Binding can be weak; no strength is given. For some of these results: Tags and fused reporters may be left off the sequences shown.
